Test results: article PMC9830831
Results are given in words; binding and its absence hold for the method and conditions named. In cells and extracts the contact can be indirect. Some results given as binding are weak or reduced against the parent protein; the word gives no strength.

Target: T1, ZFP36L2 (human (endogenous in A549, PC9, A549-DDP, PC9-DDP)) (UniProt P47974)
T1 sequence: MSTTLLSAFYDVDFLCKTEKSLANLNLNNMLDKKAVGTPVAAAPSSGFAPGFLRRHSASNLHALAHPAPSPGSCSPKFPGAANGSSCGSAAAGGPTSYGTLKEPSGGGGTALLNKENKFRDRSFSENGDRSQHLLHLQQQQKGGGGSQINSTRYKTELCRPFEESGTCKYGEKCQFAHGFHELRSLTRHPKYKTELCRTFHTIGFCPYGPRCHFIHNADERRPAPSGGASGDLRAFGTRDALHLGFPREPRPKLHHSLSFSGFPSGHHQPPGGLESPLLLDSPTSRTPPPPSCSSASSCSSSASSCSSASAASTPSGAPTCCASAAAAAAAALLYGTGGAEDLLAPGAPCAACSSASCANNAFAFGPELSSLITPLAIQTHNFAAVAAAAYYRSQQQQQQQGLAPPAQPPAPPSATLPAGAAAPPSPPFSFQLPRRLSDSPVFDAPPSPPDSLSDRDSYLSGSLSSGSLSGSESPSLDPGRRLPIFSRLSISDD
Experiment: co-IP; endogenous; Co-IP kit (Thermo #26149); 5 mg of cell protein with 10 ug of ZFP36L2 antibody or IgG control overnight at 4 °C, eluate blotted for PROCA1; A549, PC9, A549-DDP and PC9-DDP cells; also A549 with shLINC00173 and A549-DDP with LINC00173 overexpressed, cultured with cisplatin

B1: PROCA1 (protein, UniProt Q8NCQ7 1-364)
chain: MWVRTTLTIERWTKEKTEPKARSWDEALSDVNRLPSWERGHLLAGVASSTDVSTFSEGGDCKEPDKCCWRHKQCTGHIIYPFASDCVRHSLHLHSVNHCNCNSRLKDSSEDSSSSRGAGPTCSHVIESPCFELTPEEEHVERFRYGWCKSYRPVSVAVIHHPLYHECGADDLNEEEEEEEEESKPPIPTQVGPATASPDLGTSMATGTPDSTAPITIWRSESPTGKGQGSKVIKKVKKKKEKEKDKEEMDEKAKLKKKAKKGQLTKKKSPVKLEPSPPDVSRSLSARQLARMSESSPESREELESEDSYNGRGQGELSSEDIVESSSPRKRENTVQAKKTGAKPSQARKVNKRKSPPGSNPNLS
  binding: binds
